Data on four molecules can be found in PMC11250828.

Common to all, as to assay: co-IP; 10 ug antibody (LARP3, LARP7, MePCE, DKC1 or IgG) on Protein A Sepharose CL-4B beads, incubated with 1 mg 293T cell extract at 4 °C for 1 h; washed with NET-2 buffer (50 mM Tris-HCl pH 7.5, 150 mM NaCl, 0.05% NP-40); Western blot
On the technique in general: In western blotting, separated proteins are transferred to a membrane and probed.

Assay [1] deals with T1, LARP7 (human (endogenous in 293T)), Q4G0J3.
T1 chain: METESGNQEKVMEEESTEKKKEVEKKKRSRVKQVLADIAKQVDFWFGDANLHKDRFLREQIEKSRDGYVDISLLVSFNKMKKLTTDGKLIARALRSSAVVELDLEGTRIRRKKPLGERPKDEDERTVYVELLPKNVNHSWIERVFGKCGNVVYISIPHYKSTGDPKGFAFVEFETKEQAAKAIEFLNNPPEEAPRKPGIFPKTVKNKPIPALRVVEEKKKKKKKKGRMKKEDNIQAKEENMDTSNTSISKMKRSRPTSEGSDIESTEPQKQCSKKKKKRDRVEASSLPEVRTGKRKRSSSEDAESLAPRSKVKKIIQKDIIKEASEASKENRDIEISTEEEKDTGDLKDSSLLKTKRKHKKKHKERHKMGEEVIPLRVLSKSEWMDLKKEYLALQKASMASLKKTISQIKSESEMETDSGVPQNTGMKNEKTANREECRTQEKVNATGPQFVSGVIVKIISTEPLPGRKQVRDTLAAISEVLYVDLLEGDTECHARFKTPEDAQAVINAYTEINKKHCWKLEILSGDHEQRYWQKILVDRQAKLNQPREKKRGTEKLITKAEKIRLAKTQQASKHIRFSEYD
The settings on record: remark: other sources report otherwise.

Assay [2] concerns the target T2, LARP3 (a genuine La protein) (human (endogenous in 293T)), P05455.
T2 chain: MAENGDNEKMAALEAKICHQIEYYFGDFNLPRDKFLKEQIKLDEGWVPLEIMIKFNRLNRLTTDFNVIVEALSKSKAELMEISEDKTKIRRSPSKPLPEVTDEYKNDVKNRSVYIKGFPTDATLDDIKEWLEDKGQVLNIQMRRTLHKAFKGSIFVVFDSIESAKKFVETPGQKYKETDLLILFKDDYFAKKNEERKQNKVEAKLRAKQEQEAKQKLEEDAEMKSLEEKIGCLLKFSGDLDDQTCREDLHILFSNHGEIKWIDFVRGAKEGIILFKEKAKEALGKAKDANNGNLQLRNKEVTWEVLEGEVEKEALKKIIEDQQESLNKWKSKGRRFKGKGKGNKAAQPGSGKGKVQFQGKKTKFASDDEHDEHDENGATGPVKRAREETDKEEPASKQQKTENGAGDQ
The settings on record: remark: other sources report otherwise.

Assay [3] has as its target T3, LARP3 (a genuine La protein) (human (endogenous in 293T)) (UniProt P05455).
T3 sequence: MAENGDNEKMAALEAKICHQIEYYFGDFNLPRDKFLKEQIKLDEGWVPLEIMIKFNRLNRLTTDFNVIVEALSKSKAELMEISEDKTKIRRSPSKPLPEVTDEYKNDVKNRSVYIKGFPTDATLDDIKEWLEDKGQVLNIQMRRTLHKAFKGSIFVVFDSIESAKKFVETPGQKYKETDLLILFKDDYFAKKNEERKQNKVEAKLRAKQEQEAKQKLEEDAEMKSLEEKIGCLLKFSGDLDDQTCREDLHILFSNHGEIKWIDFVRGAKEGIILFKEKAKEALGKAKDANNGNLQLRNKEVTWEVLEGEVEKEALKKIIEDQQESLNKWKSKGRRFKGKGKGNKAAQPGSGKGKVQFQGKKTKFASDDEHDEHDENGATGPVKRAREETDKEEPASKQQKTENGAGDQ

No constants are given. Whether binding was seen depends on the method and setting. Binding seen in cells or lysates may run through a third protein. Some binding calls cover weakened binding; strength is not graded here.

B1: LARP3 (a genuine La protein), P05455 1-408 (protein)
chain: MAENGDNEKMAALEAKICHQIEYYFGDFNLPRDKFLKEQIKLDEGWVPLEIMIKFNRLNRLTTDFNVIVEALSKSKAELMEISEDKTKIRRSPSKPLPEVTDEYKNDVKNRSVYIKGFPTDATLDDIKEWLEDKGQVLNIQMRRTLHKAFKGSIFVVFDSIESAKKFVETPGQKYKETDLLILFKDDYFAKKNEERKQNKVEAKLRAKQEQEAKQKLEEDAEMKSLEEKIGCLLKFSGDLDDQTCREDLHILFSNHGEIKWIDFVRGAKEGIILFKEKAKEALGKAKDANNGNLQLRNKEVTWEVLEGEVEKEALKKIIEDQQESLNKWKSKGRRFKGKGKGNKAAQPGSGKGKVQFQGKKTKFASDDEHDEHDENGATGPVKRAREETDKEEPASKQQKTENGAGDQ
Regarding B1, the binding result in assay [1] is “binds”.

B2: LARP7, Q4G0J3 1-582 (protein)
chain: METESGNQEKVMEEESTEKKKEVEKKKRSRVKQVLADIAKQVDFWFGDANLHKDRFLREQIEKSRDGYVDISLLVSFNKMKKLTTDGKLIARALRSSAVVELDLEGTRIRRKKPLGERPKDEDERTVYVELLPKNVNHSWIERVFGKCGNVVYISIPHYKSTGDPKGFAFVEFETKEQAAKAIEFLNNPPEEAPRKPGIFPKTVKNKPIPALRVVEEKKKKKKKKGRMKKEDNIQAKEENMDTSNTSISKMKRSRPTSEGSDIESTEPQKQCSKKKKKRDRVEASSLPEVRTGKRKRSSSEDAESLAPRSKVKKIIQKDIIKEASEASKENRDIEISTEEEKDTGDLKDSSLLKTKRKHKKKHKERHKMGEEVIPLRVLSKSEWMDLKKEYLALQKASMASLKKTISQIKSESEMETDSGVPQNTGMKNEKTANREECRTQEKVNATGPQFVSGVIVKIISTEPLPGRKQVRDTLAAISEVLYVDLLEGDTECHARFKTPEDAQAVINAYTEINKKHCWKLEILSGDHEQRYWQKILVDRQAKLNQPREKKRGTEKLITKAEKIRLAKTQQASKHIRFSEYD
For B2, the binding result in assay [2] was “binds”.

B3: methyl phosphate capping enzyme (MePCE) (enzyme, UniProt Q7L2J0 1-689)
chain: MIEMAAEKEPFLVPAPPPPLKDESGGGGGPTVPPHQEAASGELRGGTERGPGRCAPSAGSPAAAVGRESPGAAATSSSGPQAQQHRGGGPQAQSHGEARLSDPPGRAAPPDVGEERRGGGGTELGPPAPPRPRNGYQPHRPPGGGGGKRRNSCNVGGGGGGFKHPAFKRRRRVNSDCDSVLPSNFLLGGNIFDPLNLNSLLDEEVSRTLNAETPKSSPLPAKGRDPVEILIPKDITDPLSLNTCTDEGHVVLASPLKTGRKRHRHRGQHHQQQQAAGGSESHPVPPTAPLTPLLHGEGASQQPRHRGQNRDAPQPYELNTAINCRDEVVSPLPSALQGPSGSLSAPPAASVISAPPSSSSRHRKRRRTSSKSEAGARGGGQGSKEKGRGSWGGRHHHHHPLPAAGFKKQQRKFQYGNYCKYYGYRNPSCEDGRLRVLKPEWFRGRDVLDLGCNVGHLTLSIACKWGPSRMVGLDIDSRLIHSARQNIRHYLSEELRLPPQTLEGDPGAEGEEGTTTVRKRSCFPASLTASRGPIAAPQVPLDGADTSVFPNNVVFVTGNYVLDRDDLVEAQTPEYDVVLCLSLTKWVHLNWGDEGLKRMFRRIYRHLRPGGILVLEPQPWSSYGKRKTLTETIYKNYYRIQLKPEQFSSYLTSPDVGFSSYELVATPHNTSKGFQRPVYLFHKARSPSH
Regarding B3, in assay [3], the binding result was “binds”.

B4: DKC1 (protein, UniProt O60832 1-514)
chain: MADAEVIILPKKHKKKKERKSLPEEDVAEIQHAEEFLIKPESKVAKLDTSQWPLLLKNFDKLNVRTTHYTPLACGSNPLKREIGDYIRTGFINLDKPSNPSSHEVVAWIRRILRVEKTGHSGTLDPKVTGCLIVCIERATRLVKSQQSAGKEYVGIVRLHNAIEGGTQLSRALETLTGALFQRPPLIAAVKRQLRVRTIYESKMIEYDPERRLGIFWVSCEAGTYIRTLCVHLGLLLGVGGQMQELRRVRSGVMSEKDHMVTMHDVLDAQWLYDNHKDESYLRRVVYPLEKLLTSHKRLVMKDSAVNAICYGAKIMLPGVLRYEDGIEVNQEIVVITTKGEAICMAIALMTTAVISTCDHGIVAKIKRVIMERDTYPRKWGLGPKASQKKLMIKQGLLDKHGKPTDSTPATWKQEYVDYSESAKKEVVAEVVKAPQVVAEAAKTAKRKRESESESDETPPAAPQLIKKEKKKSKKDKKAKAGLESGAEPGDGDSDTTKKKKKKKKAKEVELVSE
As for B4, the binding result in assay [3] was “no binding”.
